Measurements reported in the supplement of paper PMC5949888.
± gives the standard deviation of the averaged measurements. Most values lie at the floor of the assay. Slopes are relative: functional sequences can read slightly below zero.

test system: Saccharomyces cerevisiae PS128 hsf1 delta, HSF1(1-493) fusion; assay: growth estimate (transactivation domain function in HSF1 fusion, heat-shock survival) (a.u. (slope of normalised read count over time)); higher = stronger growth at 37°C, i.e. more transactivation activity; settings: library: random library

Substance	growth estimate
KSIMELYFVACTTAYRAECF	< -0.25
RSCGCELKSSKVLQYDSLGP	< -0.25
GWLTCVLRAAGLATYGNIR	< -0.25
VPGH	< -0.25
KIYPATGHKGHLASRVIKRC	< -0.25
RGSPEQPLL	< -0.25
PVCSWDITPTKAVGGG	< -0.25
TGRLRCISGGEKERA	-0.112
YDLS	< -0.25
AQVRMTTEGNAHLYVRPTKT	< -0.25
TPARTRWEANIPGTGQSR	< -0.25
TSRGVGISLSCAHATIHMTL	< -0.25
LVRESVR	< -0.25
AIGDQERIISR	< -0.25
PYTPPSVTCGQRTPCQRPSP	< -0.25
ESSR	< -0.25
FARAWHDHSGQEIRFWSIFY	< -0.25
AHNTSSRELNCANWREQVFG	-0.246
TFSKL	< -0.25
EQSCPK	< -0.25
PKLDRDSEP	< -0.25
PKAILIPLFNV	< -0.25
YVRKSGRSPRFG	< -0.25
GNVGMEGMMLISGVAQN	< -0.25
SHH	-0.248 ± 0.003

For convenience, some entries already given.
Substance	growth estimate
GWLTCVLRAAGLATYGNIR	< -0.25
VPGH	< -0.25
KIYPATGHKGHLASRVIKRC	< -0.25
RGSPEQPLL	< -0.25
PVCSWDITPTKAVGGG	< -0.25
TGRLRCISGGEKERA	-0.112

(continued)

Substance	growth estimate
VLQCLR	< -0.25
VTFSTCLMKARCPIIVSGTS	< -0.25
ISYSSM	< -0.25
FAHLLRRYRSSLLLLVQLTA	< -0.25
WVDLGPSLSSSGKK	< -0.25
FRSYIGVARRNGSPRRERRA	< -0.25
PAVIPPSAW	< -0.25
TSAGVGLLNVGALPDGIDHA	< -0.25
KASVG	< -0.25
VWYGASVQRSFHF	< -0.25
TDIRCEVQRNITPN	< -0.25
SHVGLWKYPATTVF	< -0.25
GHRGLSRSDRSLMAAKRQRT	< -0.25
RLECERAIRFGLHVGRRNRN	-0.222
RSLAGSASPAGGK	< -0.25
IAPSSGDRAFFVIRG	-0.25
RHLS	< -0.25
YSDNRVFKYSDDGTV	< -0.25
RFFRLVYIPSVSRLEP	< -0.25
IRGGK	< -0.25
GIGDWMLAICTPAGSID	< -0.25
IKSRIRTFC	< -0.25
RLPLVGLGLLISRTLVIVAM	< -0.25
WCK	< -0.25
GDDGVIHQLVTIVSESRARE	< -0.25

Substance	growth estimate
YPFSLNIMVRMS	< -0.25
RGPSHNV	< -0.25
LEGLKLWLGAVGEPLD	< -0.25
VEGVGFLIARAI	< -0.25
VGWAELVYSFPRRSRILSSH	< -0.25
TRLEDTIRVRASGKL	< -0.25
YNFGGVKGRHFFLDLGTTSL	-0.228
GTDRINAS	< -0.25
PLS	< -0.25
LAVFPEDVQDP	< -0.25
KQTTKYKFR	< -0.25
WYSSPEYSELDYIST	< -0.25
FLMRG	< -0.25
VMLAPG	< -0.25
SKLDQSSCTAGGPAPFSVPR	< -0.25
ALPRGVARTCLSTPADAAQQ	< -0.25
TKGIEYERCDKVRVRTIMRG	< -0.25
YVSGRVILSENLESGSSIDG	< -0.25
DGRSKFANPGASNFSRAVSD	< -0.25
SVPRFEVHEISVIISQGEYE	< -0.25
SKVRLDSVGGAPISCPSGAH	< -0.25
DISPSRGGRATGARRGHRCP	< -0.25
LHLIVSRGLGPRPSIQDRVS	< -0.25
RTKHMAACRPSCS	< -0.25
KRGGIEPSIMYALTRSRTGH	< -0.25

Substance	growth estimate
KAGILGDRRPYAGLNSIVPL	< -0.25
RDLNEWRCRGCWFLRNHCTV	< -0.25
DNIVFVLAYVPSDRTHVYGW	< -0.25
VQR	< -0.25
SCPGSCRIMRRAWGVFICKA	< -0.25
IDSMGCERLPVPLACITILT	< -0.25
RPQSVLKNAGRLGKR	-0.107
YPML	< -0.25
ALPMRVPEDRAVCNGQVPSK	< -0.25
GMPFSTWSRICDTIPAQERQ	< -0.25
PRDFTRRMLSF	< -0.25
FIRTAA	< -0.25
VKAYGTARDQSHVPTA	< -0.25
NAIDSEAGPRRLSG	< -0.25
GFRLRSPVKRGMAMGHNTPI	< -0.25
GSRPLARINYTLG	< -0.25
GLVGPLSMPGFAGTTAGHGE	< -0.25
DISPALRDWPGEQ	< -0.25
FARVVGAAQTR	< -0.25
SYRGFKRRSSYWYLS	< -0.25
FCEHGQIY	< -0.25
QHRLEPITSRAILGNNYSRE	< -0.25
VVEATGQRVIIWLLSPRCRR	< -0.25
VSGLVWKAGCSRGDSRMLDV	< -0.25
ASIRSFLPGLQSQERRGPVR	< -0.25

Retrieved one by one from above (2):
Substance	growth estimate
DNIVFVLAYVPSDRTHVYGW	< -0.25
VEGVGFLIARAI	< -0.25

The results go on.

Substance	growth estimate
RIASSTREPRPMWAWENFH	< -0.25
SRCQRRGTDEDNELLGQVSG	< -0.25
HCCPK	< -0.25
TNIGSSY	< -0.25
FTTCTMIVSRGLQRQ	< -0.25
DVKRWPMMSAGTFYQQKRC	< -0.25
MGACFTCSASFFELRGYS	< -0.25
YVDLEDVISRDGLSLFSELG	2.44
EIDFIILRPASLLMNPAHLF	< -0.25
TRGLLCWADGRGL	< -0.25
RVSREVTSPDQ	< -0.25
VDQGYSITEHKARSNKYDTP	< -0.25
VINPN	< -0.25
LGGSCAYPNLISPVSLGN	< -0.25
GSEPGGAKALQIQRASVPRA	< -0.25
RGFVVVSPGYPRKPPGGPSL	< -0.25
GNTRYL	< -0.25
AGVNL	< -0.25
TGTRTKLINLYGH	< -0.25
SRPILKRVRNFSLVGNRSRE	< -0.25
PPEHHAPAFLFIA	< -0.25
GHFEAYTRSTRRRANSGR	-0.172
ANVHARVPGPISGHMSVSRL	< -0.25
NSTPVT	< -0.25
TIAEPRNEEEDTPEGGSGVY	< -0.25

Substance	growth estimate
LIRRDRHVDVLSCLQRLVHE	< -0.25
IIPCSQRRGGSHGGRAPG	< -0.25
RRGTEPLLAAMPGPILYASL	< -0.25
LGIYASLARSVAVVRPKKRR	< -0.25
VLITSGSLVQGFVRTAGGFC	< -0.25
QGKRYMCVQPVRSARSSQAC	< -0.25
KTCDRNKNNATP	< -0.25
RTV	-0.212 ± 0.053
NNVKSAPAPSWPRYGAGHCP	< -0.25
EGRST	< -0.25
LWSA	< -0.25
TRRRFRIYAPRFILTVRPTV	< -0.25
GLRLGG	< -0.25
FFLVLADETG	< -0.25
TRKTGLDSMTALLEHIISAV	< -0.25
IQVHYVRVRTIETKTYGCFR	< -0.25
HRLGLSSVRTQNRGTLSHTD	< -0.25
LNKSPRESGRHINANTTSQR	< -0.25
GRRN	< -0.25
SSRWRIRGS	< -0.25
LGVMTAGSI	< -0.25
LSPLIISRHKFAEFIT	< -0.25
ILNTEDY	< -0.25
RGRIKTTGIPNMYAYVSLGR	0.471
CTLG	< -0.25

Substance	growth estimate
FTGFTRDALDIIHLPIATHY	-0.245
GQPSNLYGLWRGAPTVTCQL	< -0.25
VALGWVRIPTGFRARLDMVK	< -0.25
HAVSDMKYSHVPPRVPGTAR	< -0.25
YSVFCPLGCVIPPGMCLFDF	< -0.25
TIQSIFKLSIRHRLMVPQWI	< -0.25
GADVYTCQKTFSMLHI	< -0.25
LYGVYSLLIVRSGCSVK	-0.242
AGRTKGHVLTSTQLTVPRPN	< -0.25
LPVCVSCECHMI	< -0.25
WAIMGHFTCDNNRRG	< -0.25
GLEPGLSVKQRTRHGGGHFE	-0.246
SWILK	< -0.25
DCKTLWRTIPGISDILSDIK	< -0.25
LAAS	< -0.25
EKSNKGPVTSCVW	< -0.25
GGCQWS	< -0.25
RGTGASYSMLRCEWNGPTQQ	< -0.25
HIPSTDIGVKSGPVAQGAGS	< -0.25
RRMRGAPLRIGLRVYHVPWG	< -0.25
HPAVLPSKS	< -0.25
VSGEII	-0.245
LTNYHLYFHPSYKWALALLA	< -0.25
LPGEPNGEVAGITTVIRGNA	-0.246
LRLGPARVQRVTHIKT	< -0.25

Substance	growth estimate
VRFRILVHGHSHQN	< -0.25
SYWLVAQDAVISGVMSSAVS	< -0.25
DTERGACVTSQRAC	< -0.25
GFARRTPCNHCPNCISSSKR	< -0.25
GISWYQARGR	-0.16
LTESRWSHTP	< -0.25
SGIISYAGLAR	< -0.25
PRSGDICKNRFEGINVRPLK	< -0.25
GLRIGRGFRGDRACSRTAIP	< -0.25
KGEQSHKWDDTGR	< -0.25
ICLESPVSSSPGFLKRALVR	< -0.25
LYSVSCEFRMRA	< -0.25
VYHAGGRKGSTGVLRTCASI	< -0.25
RADARLQSHYCWPERHRLGH	-0.246
FEWPGISVGPSGLLFLGEHA	< -0.25
RQRRGSRYRASMRGR	-0.243
CTLIPNVGGKAQSIHNYCLS	< -0.25
LVQPPHGSFNSARRSVASLD	< -0.25
REVSELDRLVRKYLCFRQIV	< -0.25
AYWIRH	-0.246
TGKVNIYATHAEPLNFLDQG	< -0.25
LQVEWRFQSDSSGSRYRGCC	< -0.25
SCFFRVYSAGCH	< -0.25

As entered above.
DISPALRDWPGEQ | growth estimate: < -0.25
EKSNKGPVTSCVW | growth estimate: < -0.25
